Reference: article PMC8437434
Results are given in words; binding and its absence hold for the method and conditions named. Some results given as binding are weak or reduced against the parent protein; the word gives no strength.

Amino acid sequences for entries named in this document (tags omitted). A change or cut given only in a name is not applied to a line headed by its entry. Chains listed by the source or under a name are the forms on record and can include a tag or linker.
preformed tau^4R fibrils (P10636, form named): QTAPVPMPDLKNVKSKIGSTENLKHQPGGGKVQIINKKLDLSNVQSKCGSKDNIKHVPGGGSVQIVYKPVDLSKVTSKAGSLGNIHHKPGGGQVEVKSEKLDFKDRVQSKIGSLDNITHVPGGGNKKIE
UniProt O60884: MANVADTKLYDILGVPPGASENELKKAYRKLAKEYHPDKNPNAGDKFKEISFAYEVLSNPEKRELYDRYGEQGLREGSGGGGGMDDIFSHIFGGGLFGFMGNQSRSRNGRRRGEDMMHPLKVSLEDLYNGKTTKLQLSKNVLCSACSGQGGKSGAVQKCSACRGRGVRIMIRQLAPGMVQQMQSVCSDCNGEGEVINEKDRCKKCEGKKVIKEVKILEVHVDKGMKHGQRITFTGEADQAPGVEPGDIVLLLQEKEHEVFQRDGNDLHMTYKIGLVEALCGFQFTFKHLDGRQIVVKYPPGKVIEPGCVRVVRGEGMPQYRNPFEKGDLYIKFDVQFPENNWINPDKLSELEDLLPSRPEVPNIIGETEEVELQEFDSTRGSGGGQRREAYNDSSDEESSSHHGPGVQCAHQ

Legend:
preformed tau^4R fibrils [1] = biological target: preformed tau^4R fibrils (UniProt P10636); test: negative stain electron microscopy; preformed tau fibers incubated with chaperone at 1:1 molar ratio; uranyl formate stain; both purified
preformed tau^4R fibrils [2] = biological target: preformed tau^4R fibrils (UniProt P10636); test: co-sedimentation; 10 µM preformed tau^4R fibers with 10 µM chaperone, 20 min 37 °C, 50 mM HEPES pH 7.4, 50 mM KCl; centrifuged 16,900 g 30 min; supernatant and pellet on SDS-PAGE; both purified

DNAJA2 (from UniProt O60884 1-412)
binding (preformed tau^4R fibrils [1]): binds | binding (preformed tau^4R fibrils [2]): binds
